Measurements reported in PubChem BioAssay AID1159578 (Peter MacCallum Cancer Centre, 2015).
Here is a random part of about 18,000 reagents. About 1,030 of all reagents (5.7%) count as active. 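Inactive calls also include pools with fewer than 3300 nuclei, whose migration was not assessed.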 Raw values are not corrected between plates. Further read-outs or replicates are left out here.

Test: 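Genome-wide hunt for genes controlling movement of lymphatic endothelial cells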 (primary screen)
System: human lymphatic endothelial cells
Reagent: siRNA pool against human genes, 40 nM
Timing: 48 h after transfection
Measurement: 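High-content imaging of dye-stained cells in a scratch assay measures filled wound area and nuclei per well; duplicate means given as ratio to mock and robust z-score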
Scale: migration robust z-score: higher = faster migration into the scratch; nuclei per well: higher = more cells in the well
Call rule: 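Pools averaging fewer than 3300 nuclei are never called; remaining pools count as changed when migration robust z lies outside -2 to 2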
Calls: active = migration changed; inactive = no migration change, or too few cells

target gene | migration robust z-score | nuclei per well, duplicate mean | Call
STOM (GeneID 2040) | 0.4 | 5998 | inactive
PTK7 (GeneID 5754) | -1.53 | 5140 | inactive
DHRS11 (GeneID 79154) | -1.58 | 5298 | inactive
CCS (GeneID 9973) | -2.64 | 3561 | active
THY1 (GeneID 7070) | 0.16 | 5962 | inactive
LGALS13 (GeneID 29124) | -0.2 | 5554 | inactive
AKAP1 (GeneID 8165) | -0.86 | 4884 | inactive
DEFB129 (GeneID 140881) | -2.14 | 4012 | active
DBNDD2 (GeneID 55861) | 1.27 | 5913 | inactive
CCDC82 (GeneID 79780) | -0.8 | 5574 | inactive
ZNF362 (GeneID 149076) | 1.42 | 6050 | inactive
IL13RA2 (GeneID 3598) | 0.99 | 5478 | inactive
RGS13 (GeneID 6003) | -0.44 | 5789 | inactive
ARHGEF26 (GeneID 26084) | -1.31 | 4856 | inactive
PSEN1 (GeneID 5663) | -0.94 | 5156 | inactive
NR2F1 (GeneID 7025) | 1.25 | 5971 | inactive
PCDH15 (GeneID 65217) | -0.02 | 4367 | inactive
OPTN (GeneID 10133) | 0.24 | 4174 | inactive
JMY (GeneID 133746) | -1.83 | 4882 | inactive
GFER (GeneID 2671) | -2.77 | 2186 | inactive
NDUFB11 (GeneID 54539) | 0.9 | 6394 | inactive
ABCD1 (GeneID 215) | 0.13 | 5803 | inactive
MAP2K6 (GeneID 5608) | -0.88 | 6028 | inactive
YME1L1 (GeneID 10730) | 0.55 | 5879 | inactive
HSP90AB1 (GeneID 3326) | -0.36 | 5323 | inactive
MTREX (GeneID 23517) | -0.41 | 5746 | inactive
TMCO2 (GeneID 127391) | -0.65 | 4964 | inactive
RPL7L1 (GeneID 285855) | -1.67 | 4670 | inactive
PKIA (GeneID 5569) | -1.03 | 5781 | inactive
SH3GLB2 (GeneID 56904) | 0.51 | 6230 | inactive
GJA10 (GeneID 84694) | -1.64 | 4708 | inactive
B3GNT4 (GeneID 79369) | -0.36 | 5709 | inactive
ADAMTS10 (GeneID 81794) | -1.32 | 5400 | inactive
MAT2B (GeneID 27430) | 0.42 | 6612 | inactive
SERPINA1 (GeneID 5265) | 0.83 | 5626 | inactive
STXBP1 (GeneID 6812) | -0.06 | 5750 | inactive
ZNF438 (GeneID 220929) | -1.61 | 5974 | inactive
OR14C36 (GeneID 127066) | -0.7 | 5740 | inactive
LY6G6F (GeneID 259215) | 0.16 | 5444 | inactive
TSSC4 (GeneID 10078) | -0.21 | 5851 | inactive
PCDHB1 (GeneID 29930) | -0.07 | 6911 | inactive
ABCA3 (GeneID 21) | -0.16 | 6287 | inactive
ALDH18A1 (GeneID 5832) | -0.05 | 4582 | inactive
FUZ (GeneID 80199) | 1.7 | 5568 | inactive
AGPAT2 (GeneID 10555) | -0.12 | 6991 | inactive
DENND10 (GeneID 404636) | 0.43 | 5870 | inactive
CFAP410 (GeneID 755) | -0.46 | 5635 | inactive
NKD2 (GeneID 85409) | 0.83 | 6120 | inactive
RNF39 (GeneID 80352) | 1.27 | 5776 | inactive
ETHE1 (GeneID 23474) | 0.11 | 5682 | inactive
LONRF1 (GeneID 91694) | 1.77 | 5046 | inactive
TLR2 (GeneID 7097) | 0.96 | 6848 | inactive
ZFAND2B (GeneID 130617) | 0.88 | 4054 | inactive
SEC63 (GeneID 11231) | 0.6 | 6368 | inactive
ZNF567 (GeneID 163081) | 0.41 | 5568 | inactive
SSRP1 (GeneID 6749) | 0.86 | 6320 | inactive
PRDM7 (GeneID 11105) | -0.91 | 5800 | inactive

A stretch of the results above, for reference:
target gene | migration robust z-score | nuclei per well, duplicate mean | Call
ZFAND2B (GeneID 130617) | 0.88 | 4054 | inactive
SEC63 (GeneID 11231) | 0.6 | 6368 | inactive
ZNF567 (GeneID 163081) | 0.41 | 5568 | inactive
